Data reported in article doi:10.1101/2021.08.05.455199.

By UniProt entry, the sequences of proteins in these tests, tags left out. Where a name states a change or a piece, a line headed by the entry shows the natural chain unless it says otherwise.
UniProt Q9SQI2: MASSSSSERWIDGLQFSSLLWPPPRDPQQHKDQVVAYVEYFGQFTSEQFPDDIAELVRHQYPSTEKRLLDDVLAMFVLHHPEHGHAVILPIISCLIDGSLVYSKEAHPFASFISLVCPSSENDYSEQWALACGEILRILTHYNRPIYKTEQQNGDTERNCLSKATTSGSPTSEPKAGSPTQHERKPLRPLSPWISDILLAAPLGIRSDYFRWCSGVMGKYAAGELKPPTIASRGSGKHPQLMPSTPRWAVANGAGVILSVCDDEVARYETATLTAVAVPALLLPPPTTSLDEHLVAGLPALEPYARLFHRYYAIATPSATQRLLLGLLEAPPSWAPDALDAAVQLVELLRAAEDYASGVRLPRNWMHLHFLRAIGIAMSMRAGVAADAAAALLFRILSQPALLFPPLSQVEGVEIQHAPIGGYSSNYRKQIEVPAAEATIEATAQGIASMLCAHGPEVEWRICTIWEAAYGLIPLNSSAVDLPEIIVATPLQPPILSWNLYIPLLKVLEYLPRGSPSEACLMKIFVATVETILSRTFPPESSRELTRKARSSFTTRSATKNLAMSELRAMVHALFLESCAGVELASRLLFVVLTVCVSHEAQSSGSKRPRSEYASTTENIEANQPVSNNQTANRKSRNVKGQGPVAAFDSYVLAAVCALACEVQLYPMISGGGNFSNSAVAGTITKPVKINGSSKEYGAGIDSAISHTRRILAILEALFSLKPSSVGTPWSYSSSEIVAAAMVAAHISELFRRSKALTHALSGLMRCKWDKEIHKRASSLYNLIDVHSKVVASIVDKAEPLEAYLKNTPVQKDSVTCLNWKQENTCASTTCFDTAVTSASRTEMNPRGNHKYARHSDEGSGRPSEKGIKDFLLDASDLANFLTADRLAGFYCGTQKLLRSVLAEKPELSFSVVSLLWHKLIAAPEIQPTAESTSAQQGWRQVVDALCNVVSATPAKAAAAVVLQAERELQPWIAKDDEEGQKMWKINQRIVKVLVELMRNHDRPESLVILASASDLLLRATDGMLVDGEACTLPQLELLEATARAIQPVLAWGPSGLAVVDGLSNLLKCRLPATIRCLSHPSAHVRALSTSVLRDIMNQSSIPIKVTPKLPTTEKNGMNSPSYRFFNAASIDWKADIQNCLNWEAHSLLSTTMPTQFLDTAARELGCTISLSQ
UniProt O81223: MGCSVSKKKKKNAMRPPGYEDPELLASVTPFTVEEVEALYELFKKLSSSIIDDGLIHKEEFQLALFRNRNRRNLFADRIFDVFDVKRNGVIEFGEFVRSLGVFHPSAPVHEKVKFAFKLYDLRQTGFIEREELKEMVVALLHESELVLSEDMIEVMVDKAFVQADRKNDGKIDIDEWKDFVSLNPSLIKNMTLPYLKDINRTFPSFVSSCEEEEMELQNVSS

Molecular target: GIGANTEA tagged with HA (GI-HA) (Arabidopsis thaliana) (UniProt Q9SQI2)
Assay: co-IP

mutant protein SOS3-1 tagged with MYC (MYC-SOS3-1) (from UniProt O81223)
binding: no binding

These are yes or no findings as the source states them, for the method shown. In cells and extracts the contact can be indirect.
